Measurements from PMC3338416, “A Chemocentric Approach to the Identification of Cancer Targets” (PLoS ONE, 2012).
pIC50: −log10 of the molar value.

Tested on: HCT116 cells
Experiment: High-throughput resazurin (Alamar blue) cytotoxicity / antiproliferative assay on tumor HCT116 cells
Format: cell-based, human
Method: A colon adenocarcinoma (HCT116) and normal human lung fibroblast (MRC-5) cell lines were purchased from the American Type Culture Collection (ATCC, Manassas, VA). HCT116 cells were maintained in McCoy's 5a Modified Medium supplemented with 10% FBS, 100 units/ml penicillin, and 100 µg/ml streptomycin at 37°C in a humidified 5% CO2 incubator. Subculturing was done using 1∶5 ratio twice a week. MRC-5 cells were maintained in DMEM supplemented with 10% FBS, 100 units/ml penicillin, and 100 µg/ml streptomycin at 37°C in a humidified 5% CO2 incubator. Subculturing was done using 1∶3 ratio twice a week. […]
The high-throughput in vitro assay for measuring toxicity and antiproliferative effects of small molecules was implemented as described earlier. Cell lines were grown in culture flasks to 90% confluences, then harvested in counted cell density and seeded into 384-well microtiter plates. […] For the transformation of the assay into a high-throughput format, a Beckman Biomek liquid handling system and a Wallac Victor plate reader were used. […] From the dose-response curves, IC50 values were determined and analyzed. To test the reproducibility and robustness of the assay for high-throughput screening, Z′ factors (∼0.72) and S/B ratios (∼10) were determined and the respective plate-to-plate and day-to-day coefficients of variation found to be 5.0%, 2.7%, 1.7% and 5.6%. […]

O=C(CCCCCCC(=O)Nc1ccccc1)NO [SAHA, suberoylanilide hydroxamic acid]
pIC50 (Homo sapiens, HCT-116, 48 h incubation, dose-response, six concentrations in duplicate): 6.19
fold selectivity relative to the antiproliferative effect on MRC-5 cells (IC50(MRC-5)/IC50(HCT116)): 781 fold
